Laboratory results: patent US12060400B2, “Peptides for use in immunotherapy against cancers” (Immatics Biotechnologies GmbH, priority 2018, dated 2024)

tested on: HLA molecules of primary tumor and normal tissue samples (cancer entities); test: Identification and label-free LC-MS quantitation of HLA-presented tumor-associated peptides on tissue samples; design: species or system human; conditions: cancer entities on whose tumor tissue samples the HLA-presented peptide was found (LC-MS); abbreviations in the footnotes of Table 8a

Row | Substance | Peptide Presentation on cancer entities
1 | 255 (VYLDEKQHAW; listed as Homo sapiens) [compound 255] | CLL, NHL
2 | 256 (QHAWLPLTI; listed as Homo sapiens) [compound 256] | NHL
3 | 257 (MLILFFSTI; listed as Homo sapiens) [compound 257] | MEL
4 | 258 (VCWNPFNNTF; listed as Homo sapiens) [compound 258] | CRC
5 | 259 (FFLFIPFF; listed as Homo sapiens) [compound 259] | NSCLCadeno
6 | 261 (IMFCLKNFWW; listed as Homo sapiens) [compound 261] | NSCLCadeno, OC
7 | 264 (AYAIPSASLSW; listed as Homo sapiens) [compound 264] | HCC
8 | 265 (LYQQSDTWSL; listed as Homo sapiens) [compound 265] | HCC, NSCLCadeno
9 | 267 (QHMLPFWTDL; listed as Homo sapiens) [compound 267] | OSCAR
10 | 269 (FSFSTSMNEF; listed as Homo sapiens) [compound 269] | PRCA
11 | 270 (GTGKLFWVF; listed as Homo sapiens) [compound 270] | PACA
12 | 271 (INGDLVFSF; listed as Homo sapiens) [compound 271] | CLL
13 | 272 (IYFNHRCF; listed as Homo sapiens) [compound 272] | NSCLCadeno
14 | 277 (MSAIWISAF; listed as Homo sapiens) [compound 277] | OSCAR
15 | 278 (TYESVVTGFF; listed as Homo sapiens) [compound 278] | SCLC
16 | 280 (TIYSLEMKMSF; listed as Homo sapiens) [compound 280] | NSCLCother, NSCLCsquam

Row | Substance | Peptide Presentation on cancer entities
17 | 282 (ASYQQSTSSFF; listed as Homo sapiens) [compound 282] | NSCLCadeno
18 | 283 (SYIVDGKII; listed as Homo sapiens) [compound 283] | PRCA
19 | 285 (YFLPGPHYF; listed as Homo sapiens) [compound 285] | RCC
20 | 286 (HHTQLIFVF; listed as Homo sapiens) [compound 286] | GBC, PRCA
21 | 287 (LVQPQAVLF; listed as Homo sapiens) [compound 287] | GBM, GC, NSCLCadeno, SCLC, UEC
22 | 288 (MGKGSISFLF; listed as Homo sapiens) [compound 288] | NSCLCadeno
23 | 290 (VTPKMLISF; listed as Homo sapiens) [compound 290] | CCC, NSCLCother
24 | 291 (YTRLVLQF; listed as Homo sapiens) [compound 291] | AML, BRCA, CCC, CLL, CRC, GBC, GBM, GC, HCC, HNSCC, MEL, NHL, NSCLCadeno, NSCLCother, NSCLCsquam, OC, OSCAR, PACA, PRCA, RCC, SCLC, UBC, UEC
25 | 292 (KMFPKDFRF; listed as Homo sapiens) [compound 292] | CRC
26 | 294 (KMGRIVDYF; listed as Homo sapiens) [compound 294] | CCC, GBC, GC
27 | 296 (YQRPDLLLF; listed as Homo sapiens) [compound 296] | CLL, MEL
28 | 297 (LKSPRLFTF; listed as Homo sapiens) [compound 297] | GBC
29 | 298 (TYETVMTFF; listed as Homo sapiens) [compound 298] | GBC, GC, HCC, NHL, UBC
30 | 302 (YQGSLEVLF; listed as Homo sapiens) [compound 302] | NSCLCadeno
31 | 304 (YFGNPQKF; listed as Homo sapiens) [compound 304] | GC, PACA
